Molecules are shown by their SMILES. Some of the results follow. Shown are side measurements of this screen, not its main read-out; they come without a call. Most of these compounds were active or inconclusive in the main read-out, so they are no random draw. Words in brackets tell the shape of the fitted curve; partial curves, single points and poor fits give uncertain potencies.

The experiment can be described thus: qHTS Assay for Identifying the Cell-Membrane Permeable IMPase Inhibitors. The conditions noted are these: CHO-M1 cells, IP1 accumulation, HTRF TR-FRET ratio; measured here: donor channel 620 nm AC50. (In qHTS, concentration-response curves come from the screen itself.)
The term AC50 denotes the concentration giving half of the maximal activity seen. Take `CSc1cnn(-c2ccccc2)c(=O)c1SC`: the AC50 was 20 µM [rising, single point].

For `Nn1c(SC/C=C/c2ccccc2)nnc1-c1ccccn1`, the AC50 was 0.0251 µM [rising, full curve, poor fit].

Regarding `COc1ccc(-n2nnnc2SCC(=O)N2CCCC2)cc1OC`, the AC50 was 0.00501 µM [rising, full curve, poor fit].

Take `COC(=O)CN(c1ccccc1F)S(=O)(=O)c1ccccc1`: the AC50 was 3.98 µM [falling, full curve, poor fit].

Consider `Cc1nc2ccccc2n1/C(=N\S(=O)(=O)c1ccccc1)c1ccccc1`, for which the AC50 was 15.8 µM [rising, partial curve, poor fit].

As to `COc1ccccc1N1CCN(C(=O)C(Sc2ccccc2)c2ccccc2)CC1` (configuration not stated), the concentration at half-maximal activity (AC50) was 0.0316 µM [rising, full curve, poor fit].

Regarding `Cc1ccc(Cn2c(C(=O)NCCCN3CCOCC3)cc3sccc32)cc1`, the AC50 was 5.62 µM [falling, single point].

`COC(=O)C1C(=O)NCC1c1ccccc1` (configuration not stated): the AC50 is 5.01 µM [falling, single point].

For `CCOC(=O)c1c(-c2ccccc2)nnn1-c1nc(OC)nc(N2CCOCC2)n1`, the AC50 is 0.158 µM [falling, partial curve, poor fit].

Take `O=C(CCCc1nc(-c2ccccc2Cl)no1)NC1CCCCC1`: the AC50 is 6.31 µM [rising, single point].

Consider `COCCNC(=O)COC(=O)/C=C/c1c(C)nn(Cc2ccc(Cl)cc2Cl)c1Cl`, for which the AC50 is 2.51 µM [rising, full curve].

In the case of `Clc1ccccc1Sc1cnc2ccccc2n1`, the concentration at half-maximal activity (AC50) is 20 µM [rising, single point].

In the case of `O=C1N=C(N2CCCC2)S/C1=C\c1ccccc1`, the AC50 was 0.2 µM [rising, single point].

Take `CC(C)(C)c1ccc(C(=O)c2c[nH]c(C(=O)NCc3cccs3)c2)cc1`: the AC50 is 0.0126 µM [rising, full curve, poor fit].

As to `COc1ccccc1-c1n[nH]c(=S)n1-c1ccccc1`, the half-maximal activity concentration (AC50) was 15.8 µM [rising, partial curve].

In the case of `CCCCNC(=O)c1sc(=S)n(-c2ccccc2OC)c1N`, the AC50 was 0.1 µM [falling, full curve, poor fit].

In the case of `O=C(c1cccc(S(=O)(=O)Nc2cccc(C(F)(F)F)c2)c1)N1CCCCC1`, the concentration at half-maximal activity (AC50) was 0.0224 µM [falling, full curve, poor fit].

Turning to `c1ccc(-c2nc(-n3nc4ccccc4n3)nc3ccccc23)cc1`, the AC50 was 25.1 µM [rising, partial curve].

On to `COc1ccc(Br)c2c1-c1nc(NC(=O)c3ccccc3SC)sc1C2`, for which the AC50 was 0.126 µM [falling, single point].

On to `Cn1c2c(c(=O)n(C)c1=O)C(c1ccccc1OC(F)F)C1=C(CCCC1=O)N2` (configuration not stated), for which the AC50 was 31.6 µM [falling, single point].

`COc1ccccc1C(=O)NCCc1nc2ccccc2[nH]1`: the AC50 was 0.794 µM [falling, full curve, poor fit].

Turning to `Cc1ccc(-c2[nH]c(=O)n3ccncc23)s1`, the AC50 was 20 µM [falling, single point].

Turning to `O=C(Nc1cc2c(cc1Br)OCCO2)c1ccco1`, the AC50 was 0.251 µM [falling, full curve].

In the case of `Cc1ccc(C(=O)/C=C2/NC(=O)CS2)cc1`, the concentration at half-maximal activity (AC50) is 0.251 µM [rising, single point].

On to `CC(C)n1c(SCc2ccc(Cl)cc2)nc2c1c(=O)[nH]c(=O)n2C`, for which the AC50 is 15.8 µM [falling, partial curve, poor fit].

As to `O=C(NCc1nc(-c2ccccc2)no1)c1cccs1`, the AC50 is 25.1 µM [falling, partial curve].

For the compound `COc1ccc(C(=O)N(CC2CCCO2)C(C(=O)NC2CCCC2)c2ccc(Cl)cc2)cc1OC` (configuration not stated), the AC50 is 0.158 µM [falling, partial curve].

Take `Cc1cc(C)c(C#N)c(SCC2COc3ccccc3O2)n1` (configuration not stated): the AC50 was 6.31 µM [falling, full curve, poor fit].

With `c1ccc(CSc2n[nH]c(-c3ccco3)n2)cc1`, the half-maximal activity concentration (AC50) was 3.55 µM [falling, single point].

On to `O=C(CSc1nnc(CNc2ccc(F)cc2)n1Cc1ccco1)N1CCOCC1`, for which the half-maximal activity concentration (AC50) was 1 µM [falling, full curve, poor fit].

Take `CCc1c(C)c2cc(Cl)c(O)c(CN(C)C)c2oc1=O`: the half-maximal activity concentration (AC50) is 3.16 µM [rising, single point].

As for `COC(=O)CCN(C)CCC(=O)OC`, the half-maximal activity concentration (AC50) was 0.01 µM [falling, full curve, poor fit].

`COc1ccc(Cl)cc1-n1c(=S)sc2c(=O)[nH]c(SCC(=O)NCC3CCCO3)nc21` (configuration not stated): the concentration at half-maximal activity (AC50) is 0.158 µM [falling, full curve, poor fit].

Consider `CSCCC(NC(=O)c1ccco1)C(=O)OCC(=O)Nc1sccc1C#N` (configuration not stated), for which the AC50 is 0.0316 µM [rising, full curve, poor fit].

Turning to `Cc1cc(=S)cc(C)n1CCCO`, the AC50 is 0.316 µM [rising, full curve, poor fit].

For the compound `Nn1c(SCc2cccc3ccccc23)nnc1-c1ccco1`, the half-maximal activity concentration (AC50) was 0.01 µM [rising, full curve, poor fit].

Turning to `CCS(=O)(=O)N1CCN(S(=O)(=O)c2ccc(F)cc2)CC1`, the concentration at half-maximal activity (AC50) was 1 µM [falling, full curve].

Turning to `CCCCCCCCN=C1NC(=O)CS1`, the AC50 is 3.16 µM [falling, single point].

On to `COc1ccc(OC)c(NC(=O)C2C3C=CC(C3)C2C(=O)NCc2ccccn2)c1` (configuration not stated), for which the AC50 was 31.6 µM [falling, single point].

As for `CC1(C)N=C(c2ccc(Cl)cc2Cl)C(=O)N1`, the concentration at half-maximal activity (AC50) is 0.0126 µM [rising, full curve, poor fit].

Regarding `CC(C)(C)C1CCc2c(sc(NC(=O)C3CCCO3)c2C(N)=O)C1` (configuration not stated), the half-maximal activity concentration (AC50) was 12.6 µM [rising, single point].

Turning to `COc1ccc(CN(Cc2ccccn2)C(=O)CN2C(=O)C(C)Oc3ccccc32)cc1` (configuration not stated), the half-maximal activity concentration (AC50) was 3.16 µM [rising, full curve].

Take `COc1cccc(C2CC(C(F)(F)F)n3ncc(C(=O)Nc4c(C)n(C)n(-c5ccccc5)c4=O)c3N2)c1` (configuration not stated): the half-maximal activity concentration (AC50) is 3.98 µM [falling, partial curve, poor fit].

For the compound `Cc1ccc(O)c(N=CC2=C(O)c3ccccc3C2=O)c1`, the AC50 is 10 µM [rising, partial curve].

For the compound `CC1CCc2c(sc3nn[nH]c(=O)c23)C1` (configuration not stated), the half-maximal activity concentration (AC50) was 12.6 µM [falling, partial curve, poor fit].

`O=C(COc1cc(O)c2c(=O)cc(-c3ccccc3)oc2c1)c1ccc(F)cc1`: the half-maximal activity concentration (AC50) is 6.31 µM [rising, full curve].

In the case of `O=C1c2c(O)ccc(O)c2C(=O)c2c(NCCNCCO)ccc(NCCNCCO)c21`, the AC50 was 10 µM [falling, partial curve].

Turning to `O=C1c2ccccc2-c2c1cccc2C(=O)N(CCO)CCO`, the half-maximal activity concentration (AC50) was 0.0501 µM [falling, full curve].

For the compound `O=C(CSc1nnc(-c2cccnc2)n1-c1ccccc1)Nc1ccccn1`, the AC50 was 5.01 µM [falling, single point].

Consider `CCC(C(=O)Nc1ncn[nH]1)(C(F)(F)F)C(F)(F)F`, for which the concentration at half-maximal activity (AC50) was 0.0316 µM [rising, full curve, poor fit].

For `O=C1CC(c2cccnc2)c2cc3c(cc2N1)OCO3` (configuration not stated), the half-maximal activity concentration (AC50) was 3.16 µM [falling, partial curve].

Consider `O=C(CSc1ccc2nnc(-c3ccc(Cl)cc3)n2n1)N1CCCC1`, for which the half-maximal activity concentration (AC50) was 31.6 µM [rising, single point].

Turning to `Cc1sccc1C1C(C#N)=C(N)SC(N)=C1C#N`, the concentration at half-maximal activity (AC50) was 10 µM [rising, partial curve, poor fit].

In the case of `CCc1ccc(NC(=O)CSc2nc3cc(C(=O)OC)ccc3c(=O)n2Cc2ccco2)cc1`, the AC50 was 3.98 µM [rising, partial curve, poor fit].

For `COc1ccc(NC(=O)CSc2ccccn2)cc1`, the AC50 was 0.02 µM [falling, full curve, poor fit].

As for `O=C1CC(c2ccc3c(c2)OCO3)C2=C(CCCC2=O)N1` (configuration not stated), the AC50 is 3.16 µM [falling, full curve].

Turning to `COc1ccc(OC)c(S(=O)(=O)NC2CCN(Cc3ccccc3)CC2)c1`, the half-maximal activity concentration (AC50) is 35.5 µM [falling, single point].

Take `Cc1cc2cc(CNC(=O)C3CC3)ccc2n1C`: the concentration at half-maximal activity (AC50) is 0.0126 µM [rising, full curve, poor fit].

As to `COc1ccc(-n2ncc3c(=O)n(CC(=O)N4c5ccccc5CC4C)cnc32)cc1` (configuration not stated), the AC50 is 20 µM [rising, partial curve].

`CCOC(=O)C1Cc2c([nH]c3ccccc23)C(C)N1` (configuration not stated): the AC50 is 1.26 µM [falling, full curve, poor fit].

Take `C=CCn1c(SCC(=O)Nc2cc(NC(C)=O)ccc2OC)nnc1-c1ccccn1`: the AC50 was 25.1 µM [falling, single point].

`COC(=O)c1ccccc1NC(=O)Cn1c(=O)n(CCCC(=O)NCc2ccccc2Cl)c(=O)c2ccccc21`: the half-maximal activity concentration (AC50) was 4.47 µM [rising, partial curve, poor fit].

As for `COc1cccc(N=c2oc3ccc(OC)cc3cc2-c2nc3ccccc3[nH]2)c1`, the AC50 is 0.00316 µM [falling, full curve, poor fit].

For `Cc1ccc(NC(=O)c2sc3ccccc3c2Cl)nc1`, the AC50 is 0.631 µM [rising, single point].

As to `CCOc1ccc(OCC)c(NC(=O)CNS(=O)(=O)c2cccs2)c1`, the concentration at half-maximal activity (AC50) is 15.8 µM [falling, partial curve, poor fit].

As for `Cn1c(COc2ccc3ccccc3c2)nnc1SCC(N)=O`, the AC50 is 0.158 µM [falling, full curve, poor fit].

As for `CCCCOC(=O)C1=C(C)Nc2ncnn2C1c1cc(OC)c(OC)cc1OC` (configuration not stated), the concentration at half-maximal activity (AC50) is 6.31 µM [rising, partial curve, poor fit].

The values above are taken from PubChem BioAssay AID901 (National Center for Advancing Translational Sciences (NCATS), 2007).
